Laboratory results: paper PMC11936160
Results are given in words; binding and its absence hold for the method and conditions named. Binding seen in cells or lysates may run through a third protein. Some results given as binding are weak or reduced against the parent protein; the word gives no strength.

The chains behind the UniProt entries cited, without tags or fusion partners. Residues count along the entry.
UniProt P11021, residues 19-654: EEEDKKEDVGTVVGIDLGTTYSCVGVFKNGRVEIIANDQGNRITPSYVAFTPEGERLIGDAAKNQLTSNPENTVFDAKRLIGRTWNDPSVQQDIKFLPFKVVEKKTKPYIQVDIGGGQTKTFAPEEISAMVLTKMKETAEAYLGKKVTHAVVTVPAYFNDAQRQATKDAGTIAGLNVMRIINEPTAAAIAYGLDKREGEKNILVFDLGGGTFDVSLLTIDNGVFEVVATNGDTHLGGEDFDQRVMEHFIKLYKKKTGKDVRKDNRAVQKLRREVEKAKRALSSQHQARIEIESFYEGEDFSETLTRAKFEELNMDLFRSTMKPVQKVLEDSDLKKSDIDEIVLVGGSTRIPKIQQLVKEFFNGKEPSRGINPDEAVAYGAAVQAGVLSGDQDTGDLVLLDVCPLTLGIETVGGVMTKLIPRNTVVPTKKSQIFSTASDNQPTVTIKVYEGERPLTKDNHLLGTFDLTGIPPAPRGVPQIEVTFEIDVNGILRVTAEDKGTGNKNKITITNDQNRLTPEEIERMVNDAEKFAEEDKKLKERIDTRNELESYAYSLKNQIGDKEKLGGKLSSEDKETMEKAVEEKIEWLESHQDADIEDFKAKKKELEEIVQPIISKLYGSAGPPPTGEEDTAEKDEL

Molecular target: recombinant NS3 of DENV 2 tagged with EGFP (dengue virus 2 (DENV 2)) (UniProt P29990)
Experiment: co-IP

GRP78, endogenous (from UniProt P11021 19-654)
binding: binds
